# Laboratory results taken from the supplement of paper PMC8728848.
# The list shows a part of the results.
# B1: GroEL (Clostridium difficile), Q18CT5 (protein)
# chain: MAKEIKFSEETRRALEAGVNKLADTVKVTLGPKGRNVILDKKFGSPLITNDGVTIAKEIELEDRFENMGAQLVKEVATKTNDVAGDGTTTATVLAQAIIREGLKNVTAGANPILLRKGIQKAVTVAVEELKNQSRIVETQEAISQVASISAGDEEVGKLIAEAMEIVGKDGVITVEESQTMNTELDAVEGMQFDRGFVSAYMVTDVDKMEAVLNDPYILITDKKISNIQELLPVLEQIVQQGKKLLIIAEDVEGEALSTLVVNKLRGTFDVVAVKAPGFGDRRKEMLQDIAILTGAQVISEELGYDLKEADLSMLGRASSVKVTKESTTIVDGSGDKKAIEDRVTQIKHQVEQTTSDFDREKLMERLAKLAGGVAVVKVGAATEVELKERKLRIEDALNATRAAVEEGIVAGGGTAFVSVIPAIGTLIESLEGEVKLGAQIVKKALEEPLRQIAINAGLEGAVIVQNVVNSEAETGFDALNEKYVNMIEAGIVDPTKVSRSALQNAASIASTFLTTEAAVADLPEKEDAGMPGMGGGMPGMM
# Legend:
# Assay in all cases: glycan array binding signal (z-score within array); higher = stronger binding
# Conditions in all cases: glycan notation: IUPAC condensed, linker removed
# [1] = target: GlcNAc(b1-2)Man(a1-3)[GlcNAc(b1-2)Man(a1-6)]Man(b1-4)GlcNAc(b1-4)GlcNAc
# Method in brief: (§1)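 The binding signal is a Z-score computed within each array. Data were drawn from 3228 arrays in the Consortium for Functional Glycomics database, restricted to those with a known protein sequence. Scores were averaged over arrays of the same protein sequence at different concentrations or buffers, and over linkers, and negative values can be taken as non-binding.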
# [2] = target: GlcNAc(b1-2)Man(a1-3)[GlcNAc(b1-2)Man(a1-6)]Man(b1-4)GlcNAc(b1-4)[Fuc(a1-6)]GlcNAc
# Method in brief: as §1
# [3] = target: GlcNAc(b1-2)Man(a1-3)[GlcNAc(b1-4)][GlcNAc(b1-2)Man(a1-6)]Man(b1-4)GlcNAc(b1-4)GlcNAc
# Method in brief: as §1
# [4] = target: GlcNAc(b1-2)Man(a1-3)[GlcNAc(b1-4)][GlcNAc(b1-2)Man(a1-6)]Man(b1-4)GlcNAc(b1-4)[Fuc(a1-6)]GlcNAc
# Method in brief: as §1
# [5] = target: GlcNAc(b1-2)[GlcNAc(b1-4)]Man(a1-3)[GlcNAc(b1-2)Man(a1-6)]Man(b1-4)GlcNAc(b1-4)GlcNAc
# Method in brief: as §1
# [6] = target: GlcNAc(b1-2)[GlcNAc(b1-4)]Man(a1-3)[GlcNAc(b1-4)][GlcNAc(b1-2)Man(a1-6)]Man(b1-4)GlcNAc(b1-4)GlcNAc
# Method in brief: as §1
# [7] = target: GlcNAc(b1-2)[GlcNAc(b1-4)]Man(a1-3)[GlcNAc(b1-4)][GlcNAc(b1-2)[GlcNAc(b1-6)]Man(a1-6)]Man(b1-4)GlcNAc(b1-4)GlcNAc
# Method in brief: as §1
# [8] = target: GlcNAc(b1-2)[GlcNAc(b1-4)]Man(a1-3)[GlcNAc(b1-4)][GlcNAc(b1-2)[GlcNAc(b1-6)]Man(a1-6)]Man(b1-4)GlcNAc(b1-4)[Fuc(a1-6)]GlcNAc
# Method in brief: as §1
# [9] = target: GlcNAc(b1-2)[GlcNAc(b1-6)]Man(a1-6)[GlcNAc(b1-2)Man(a1-3)]Man(b1-4)GlcNAc(b1-4)GlcNAc
# Method in brief: as §1
# [10] = target: GlcNAc(b1-2)[GlcNAc(b1-6)]Man(a1-6)[GlcNAc(b1-2)Man(a1-3)]Man(b1-4)GlcNAc(b1-4)[Fuc(a1-6)]GlcNAc
# Method in brief: as §1
# [11] = target: GlcNAc(b1-2)[GlcNAc(b1-6)]Man(a1-6)[GlcNAc(b1-4)][GlcNAc(b1-2)Man(a1-3)]Man(b1-4)GlcNAc(b1-4)GlcNAc
# Method in brief: as §1
# GlcNAc(b1-3)Fuc = target: GlcNAc(b1-3)Fuc
# Method in brief: as §1
# GlcNAc(b1-3)Gal = target: GlcNAc(b1-3)Gal
# Method in brief: as §1
# [12] = target: GlcNAc(b1-3)Gal(b1-3)GalNAc
# Method in brief: as §1
# GlcNAc(b1-3)Gal(b1-4)Glc = target: GlcNAc(b1-3)Gal(b1-4)Glc
# Method in brief: as §1
# [13] = target: GlcNAc(b1-3)Gal(b1-4)GlcNAc
# Method in brief: as §1
# [14] = target: GlcNAc(b1-3)Gal(b1-4)GlcNAc(b1-2)Man(a1-3)[GlcNAc(b1-3)Gal(b1-4)GlcNAc(b1-2)Man(a1-6)]Man(b1-4)GlcNAc(b1-4)GlcNAc
# Method in brief: as §1
# [15] = target: GlcNAc(b1-3)Gal(b1-4)GlcNAc(b1-2)Man(a1-3)[GlcNAc(b1-3)Gal(b1-4)GlcNAc(b1-2)Man(a1-6)]Man(b1-4)GlcNAc(b1-4)[Fuc(a1-6)]GlcNAc
# Method in brief: as §1
# [16] = target: GlcNAc(b1-3)Gal(b1-4)GlcNAc(b1-2)[GlcNAc(b1-3)Gal(b1-4)GlcNAc(b1-6)]Man(a1-6)[GlcNAc(b1-3)Gal(b1-4)GlcNAc(b1-2)Man(a1-3)]Man(b1-4)GlcNAc(b1-4)GlcNAc
# Method in brief: as §1
# [17] = target: GlcNAc(b1-3)Gal(b1-4)GlcNAc(b1-3)Gal(b1-4)GlcNAc
# Method in brief: as §1
# [18] = target: GlcNAc(b1-3)Gal(b1-4)GlcNAc(b1-3)Gal(b1-4)GlcNAc(b1-2)Man(a1-3)[GlcNAc(b1-3)Gal(b1-4)GlcNAc(b1-3)Gal(b1-4)GlcNAc(b1-2)Man(a1-6)]Man(b1-4)GlcNAc(b1-4)GlcNAc
# Method in brief: as §1
# [19] = target: GlcNAc(b1-3)Gal(b1-4)GlcNAc(b1-3)Gal(b1-4)GlcNAc(b1-2)Man(a1-3)[GlcNAc(b1-3)Gal(b1-4)GlcNAc(b1-3)Gal(b1-4)GlcNAc(b1-2)Man(a1-6)]Man(b1-4)GlcNAc(b1-4)[Fuc(a1-6)]GlcNAc
# Method in brief: as §1
# [20] = target: GlcNAc(b1-3)Gal(b1-4)GlcNAc(b1-3)Gal(b1-4)GlcNAc(b1-2)[GlcNAc(b1-3)Gal(b1-4)GlcNAc(b1-3)Gal(b1-4)GlcNAc(b1-6)]Man(a1-6)[GlcNAc(b1-3)Gal(b1-4)GlcNAc(b1-3)Gal(b1-4)GlcNAc(b1-2)Man(a1-3)]Man(b1-4)GlcNAc(b1-4)[Fuc(a1-6)]GlcNAc
# Method in brief: as §1
# [21] = target: GlcNAc(b1-3)Gal(b1-4)GlcNAc(b1-3)Gal(b1-4)GlcNAc(b1-3)Gal(b1-4)GlcNAc(b1-2)Man(a1-3)[GlcNAc(b1-3)Gal(b1-4)GlcNAc(b1-3)Gal(b1-4)GlcNAc(b1-3)Gal(b1-4)GlcNAc(b1-2)Man(a1-6)]Man(b1-4)GlcNAc(b1-4)GlcNAc
# Method in brief: as §1
# [22] = target: GlcNAc(b1-3)Gal(b1-4)GlcNAc(b1-3)Gal(b1-4)GlcNAc(b1-3)Gal(b1-4)GlcNAc(b1-2)Man(a1-3)[GlcNAc(b1-3)Gal(b1-4)GlcNAc(b1-3)Gal(b1-4)GlcNAc(b1-3)Gal(b1-4)GlcNAc(b1-2)Man(a1-6)]Man(b1-4)GlcNAc(b1-4)[Fuc(a1-6)]GlcNAc
# Method in brief: as §1
# [23] = target: GlcNAc(b1-3)Gal(b1-4)GlcNAc(b1-3)Gal(b1-4)GlcNAc(b1-3)Gal(b1-4)GlcNAc(b1-2)[GlcNAc(b1-3)Gal(b1-4)GlcNAc(b1-3)Gal(b1-4)GlcNAc(b1-3)Gal(b1-4)GlcNAc(b1-6)]Man(a1-6)[GlcNAc(b1-3)Gal(b1-4)GlcNAc(b1-3)Gal(b1-4)GlcNAc(b1-3)Gal(b1-4)GlcNAc(b1-2)Man(a1-3)]Man(b1-4)GlcNAc(b1-4)[Fuc(a1-6)]GlcNAc
# Method in brief: as §1
# [24] = target: GlcNAc(b1-3)Gal(b1-4)GlcNAc(b1-3)Gal(b1-4)GlcNAc(b1-3)Gal(b1-4)GlcNAc(b1-3)Gal(b1-4)GlcNAc(b1-2)Man(a1-3)[GlcNAc(b1-3)Gal(b1-4)GlcNAc(b1-3)Gal(b1-4)GlcNAc(b1-3)Gal(b1-4)GlcNAc(b1-3)Gal(b1-4)GlcNAc(b1-2)Man(a1-6)]Man(b1-4)GlcNAc(b1-4)GlcNAc
# Method in brief: as §1
# [25] = target: GlcNAc(b1-3)Gal(b1-4)GlcNAc(b1-3)Gal(b1-4)GlcNAc(b1-3)Gal(b1-4)GlcNAc(b1-3)Gal(b1-4)GlcNAc(b1-2)Man(a1-3)[GlcNAc(b1-3)Gal(b1-4)GlcNAc(b1-3)Gal(b1-4)GlcNAc(b1-3)Gal(b1-4)GlcNAc(b1-3)Gal(b1-4)GlcNAc(b1-2)Man(a1-6)]Man(b1-4)GlcNAc(b1-4)[Fuc(a1-6)]GlcNAc
# Method in brief: as §1
# [26] = target: GlcNAc(b1-3)Gal(b1-4)GlcNAc(b1-3)Gal(b1-4)GlcNAc(b1-3)Gal(b1-4)GlcNAc(b1-3)Gal(b1-4)GlcNAc(b1-2)[GlcNAc(b1-3)Gal(b1-4)GlcNAc(b1-3)Gal(b1-4)GlcNAc(b1-3)Gal(b1-4)GlcNAc(b1-3)Gal(b1-4)GlcNAc(b1-6)]Man(a1-6)[GlcNAc(b1-3)Gal(b1-4)GlcNAc(b1-3)Gal(b1-4)GlcNAc(b1-3)Gal(b1-4)GlcNAc(b1-3)Gal(b1-4)GlcNAc(b1-2)Man(a1-3)]Man(b1-4)GlcNAc(b1-4)[Fuc(a1-6)]GlcNAc
# Method in brief: as §1
# [27] = target: GlcNAc(b1-3)Gal(b1-4)GlcNAc(b1-3)Gal(b1-4)GlcNAc(b1-3)GalNAc
# Method in brief: as §1
binder,measurement,setting,value
B1,glycan array binding signal (z-score),[1],0.147
same,glycan array binding signal (z-score),[2],-0.761
same,glycan array binding signal (z-score),[3],1.32
same,glycan array binding signal (z-score),[4],-1.46
same,glycan array binding signal (z-score),[5],-0.09
same,glycan array binding signal (z-score),[6],-0.391
same,glycan array binding signal (z-score),[7],-0.867
same,glycan array binding signal (z-score),[8],-1.09
same,glycan array binding signal (z-score),[9],1.98
same,glycan array binding signal (z-score),[10],0.305
same,glycan array binding signal (z-score),[11],-0.402
same,glycan array binding signal (z-score),GlcNAc(b1-3)Fuc,-0.968
same,glycan array binding signal (z-score),GlcNAc(b1-3)Gal,0.995
same,glycan array binding signal (z-score),[12],-0.287
same,glycan array binding signal (z-score),GlcNAc(b1-3)Gal(b1-4)Glc,-1.1
same,glycan array binding signal (z-score),[13],1.04
same,glycan array binding signal (z-score),[14],-0.053
same,glycan array binding signal (z-score),[15],-0.033
same,glycan array binding signal (z-score),[16],-0.016
same,glycan array binding signal (z-score),[17],0.167
same,glycan array binding signal (z-score),[18],2.2
same,glycan array binding signal (z-score),[19],0.364
same,glycan array binding signal (z-score),[20],0.513
same,glycan array binding signal (z-score),[21],0.196
same,glycan array binding signal (z-score),[22],0.363
same,glycan array binding signal (z-score),[23],0.075
same,glycan array binding signal (z-score),[24],0.471
same,glycan array binding signal (z-score),[25],-0.894
same,glycan array binding signal (z-score),[26],0.944
same,glycan array binding signal (z-score),[27],-0.758
